# Test results: article PMC5764400
# No constants are given. Whether binding was seen depends on the method and setting.
# T1: human DISC1 fragment comprising residues 691-836 (C region) (human), Q9NRI5
# T1 chain: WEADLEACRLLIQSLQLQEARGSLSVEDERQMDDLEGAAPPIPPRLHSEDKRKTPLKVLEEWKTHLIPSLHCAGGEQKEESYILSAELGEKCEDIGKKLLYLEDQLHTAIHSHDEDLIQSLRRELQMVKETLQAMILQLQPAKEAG
# Biological target: T1, human DISC1 fragment comprising …
# Experiment: SAXS; small angle X-ray scattering at 20°C; DISC1^691-836 at 2.8 mg/mL, VHH B5 at 2.8 and 5.6 mg/mL, complex co-purified by SEC at 2.3 mg/mL; both purified
# Settings: remark: other sources report otherwise
binder,measurement,value
"human DISC1 fragment comprising residues 691-836 (C region), Q9NRI5 691-836 (domain or fragment) WEADLEACRLLIQSLQLQEARGSLSVEDERQMDDLEGAAPPIPPRLHSEDKRKTPLKVLEEWKTHLIPSLHCAGGEQKEESYILSAELGEKCEDIGKKLLYLEDQLHTAIHSHDEDLIQSLRRELQMVKETLQAMILQLQPAKEAG",binding,no binding (tested: 2.8 mg/mL)
